The values that follow come from doi:10.1101/2024.04.30.591927.

By UniProt entry, the sequences of proteins in these tests, tags left out. Where a name states a change or a piece, a line headed by the entry shows the natural chain unless it says otherwise.
UniProt Q62193: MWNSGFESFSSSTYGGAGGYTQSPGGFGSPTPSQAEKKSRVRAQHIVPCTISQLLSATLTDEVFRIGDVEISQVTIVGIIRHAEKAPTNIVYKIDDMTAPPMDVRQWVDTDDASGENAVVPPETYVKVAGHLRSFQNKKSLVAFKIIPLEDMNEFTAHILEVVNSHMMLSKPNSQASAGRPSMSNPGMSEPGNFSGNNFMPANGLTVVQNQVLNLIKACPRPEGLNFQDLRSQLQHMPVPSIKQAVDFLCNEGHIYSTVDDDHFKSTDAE
UniProt P97931: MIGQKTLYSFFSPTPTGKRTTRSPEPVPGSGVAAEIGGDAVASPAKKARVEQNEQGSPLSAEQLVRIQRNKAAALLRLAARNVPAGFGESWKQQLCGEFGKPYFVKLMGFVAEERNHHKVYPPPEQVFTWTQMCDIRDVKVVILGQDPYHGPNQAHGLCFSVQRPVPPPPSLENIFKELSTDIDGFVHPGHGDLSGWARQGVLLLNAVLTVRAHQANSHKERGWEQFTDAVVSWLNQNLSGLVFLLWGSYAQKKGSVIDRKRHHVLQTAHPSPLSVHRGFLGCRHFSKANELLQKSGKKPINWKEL

Results are given in words; binding and its absence hold for the method and conditions named. Binding seen in cells or lysates may run through a third protein. Some binding calls cover weakened binding; strength is not graded here.

Common to all, as to experiment: co-IP
Assay [1] deals with myc-tagged murine RPA32, wild type, expressed in BOSC-23 cells (mouse) (UniProt Q62193).
Assay [2] concerns the target FLAG-tagged murine UNG (mUNG), wild type, expressed in 3T3-NTZ cells (mouse) (UniProt P97931).
For assay [3], the target named is FLAG-tagged murine UNG R81C, expressed in 3T3-NTZ cells (mouse) (UniProt P97931).
Assay [4] has as its target FLAG-tagged murine UNG (mUNG), wild type, expressed in BOSC-23 cells (mouse) (UniProt P97931).

With “FLAG-tagged murine UNG (mUNG), wild type, expressed in BOSC-23 cells (from UniProt P97931 1-306) (enzyme)”, the binding result in assay [1] was “binds”.
On to “endogenous murine RPA32 (3T3-NTZ cells) (from UniProt Q62193 1-270)”, for which the binding result in assay [2] and in assay [3] was “binds” throughout.
For “myc-tagged murine RPA32, wild type, expressed in BOSC-23 cells (from UniProt Q62193 1-270)”, the binding entry in assay [4] is “binds”.
